The test concerns P388 leukemia ip, CD2F1 mice, survival T/C. The test is described as follows: NCI In Vivo Anticancer Drug Screen. Data for tumor model P388 Leukemia (intraperitoneal) in CD2F1 (CDF1) mice. The conditions noted are these: T/C endpoint: median survival time, higher T/C = longer survival.
Setting [1] is: dose: 240.0 mg/kg/injection, schedule: Q01DX005 (ip), vehicle: Klucel (hydroxypropylcellulose) (HPC).
[2] abbreviates: dose: 25.0 mg/kg/injection, schedule: Q01DX009 (ip), vehicle: saline with Tween-80.
Where [3] appears, read: dose: 240.0 mg/kg/injection, schedule: Q01DX005 (ip), vehicle: saline with Tween-80.
[4] abbreviates: dose: 200.0 mg/kg/injection, schedule: Q01DX005 (ip), vehicle: saline with Tween-80.
Where [5] appears, read: dose: 30.0 mg/kg/injection, schedule: Q01DX005 (ip), vehicle: saline with Tween-80.
The mark [6] stands for this setting: dose: 60.0 mg/kg/injection, schedule: Q01DX005 (ip), vehicle: saline with Tween-80.
Where [7] appears, read: dose: 120.0 mg/kg/injection, schedule: Q01DX005 (ip), vehicle: saline with Tween-80.

The list shows only some results of the screen, not a fair sample: it gathers tests that were run many times, whatever their T/C, doses with no T/C, and many T/C values between a quarter and a half above the control. Other doses and runs of a compound stand elsewhere. T/C is the treated group as % of the vehicle group. Some entries give survivors of the animals treated and no T/C: the source files T/C as zero there, which appears to mark a toxic dose or a test without result, not a measured value. Some survivor counts are full or nearly so, which does not show that the dose was tolerated: survival well below the control is almost never listed, so the zero probably covers shortened survival too. Survivors were counted at the toxicity check, usually on the fifth day, unless a day is given; later deaths do not show. Schedule codes are those of the source, read here as Q, the interval in days (D) or hours (H), X, the number of doses. Some doses were run more than once; the results are listed from low to high. Where survival is the endpoint, the PubChem record calls one and a half times the control and up active, and a quarter to a half above the control has no call in these data; cut-offs in other NCI protocols can differ. Counts like (3×) give the number of equal values in this list. Some T/C values carry the count of animals alive at the toxicity check (mostly the fifth day); where none is given, no animal had died by that day.

As to `CSc1cccc(NC(=O)Oc2ccc([N+](=O)[O-])cc2Cl)c1`, the survivor count was 6 of 6 (dose: 25.0 mg/kg/injection, schedule: Q01DX009 (ip), vehicle: DMSO); 3 of 6 (dose: 50.0 mg/kg/injection, schedule: Q01DX009 (ip), vehicle: DMSO); 2 of 6 (dose: 100.0 mg/kg/injection, schedule: Q01DX009 (ip), vehicle: DMSO); 0 of 6 (dose: 200.0 mg/kg/injection, schedule: Q01DX009 (ip), vehicle: DMSO).
For the molecule `O=C1CC2OCCC3CN4CCC56c7ccccc7N1C5C2C3CC46` (stereo not drawn), the survivor count reads like this: (dose: 60.0 mg/kg/injection, schedule: Q01DX005 (ip), vehicle: Klucel (hydroxypropylcellulose) (HPC)) 0 of 6; (dose: 120.0 mg/kg/injection, schedule: Q01DX005 (ip), vehicle: Klucel (hydroxypropylcellulose) (HPC)) 0 of 6; under setting [1], 0 of 6.
For the molecule `COc1cc(C2c3cc4c(cc3C(O)C(CO)C2CO)OCO4)cc(OC)c1OC` (stereo not drawn), the T/C runs as follows: (dose: 16.5 mg/kg/injection, schedule: Q01DX009 (ip), vehicle: saline with Tween-80) 136 % of control; under setting [2], 136 % of control; (dose: 50.0 mg/kg/injection, schedule: Q04DX003 (ip), vehicle: saline with Tween-80) 140 % of control; (dose: 176.0 mg/kg/injection, schedule: Q04DX003 (ip), vehicle: saline with Tween-80) 145 % of control.
Regarding `N#CC1=C(N)CCC1`, the survivor count under setting [2] is 0 of 6.
In the case of `N#CC(C(=O)C(=O)Nc1ccc(Cl)c(Cl)c1)c1ccccc1` (stereo not drawn), the survivor count under setting [3] is 0 of 6.
With `CN(C)CC/C=C1/c2ccccc2Sc2ccc(Cl)cc21`, the survivor count is on record as 3 of 5 (dose: 25.0 mg/kg/injection, schedule: Q01DX005 (ip), vehicle: saline with Tween-80); 2 of 5 (dose: 50.0 mg/kg/injection, schedule: Q01DX005 (ip), vehicle: saline with Tween-80); 0 of 5 (dose: 100.0 mg/kg/injection, schedule: Q01DX005 (ip), vehicle: saline with Tween-80); 0 of 5 under setting [4].
For the molecule `O=C(Nc1ccccc1-c1ccccc1)C(=O)Nc1ccccc1-c1ccccc1`, the survivor count under setting [4] was 5 of 5.
As for `C[Si](OC(=O)N(CCCl)CCCl)(c1ccccc1)c1ccccc1`, the survivor count is, setting by setting: (dose: 25.0 mg/kg/injection, schedule: Q01DX009 (ip), vehicle: Klucel (hydroxypropylcellulose) (HPC)) 6 of 6; (dose: 50.0 mg/kg/injection, schedule: Q01DX009 (ip), vehicle: Klucel (hydroxypropylcellulose) (HPC)) 6 of 6; (dose: 100.0 mg/kg/injection, schedule: Q01DX009 (ip), vehicle: Klucel (hydroxypropylcellulose) (HPC)) 1 of 6.
Consider `CNC(=O)OCc1ccc(NCCN(C)C)c2c(=O)c3cc(O)ccc3sc12`, for which the T/C (dose: 1.56 mg/kg/injection, schedule: Q01DX005 (ip), vehicle: saline with Tween-80) was 134 % of control; the T/C (dose: 3.12 mg/kg/injection, schedule: Q01DX005 (ip), vehicle: saline with Tween-80) is 130 % of control; the T/C (dose: 6.25 mg/kg/injection, schedule: Q01DX005 (ip), vehicle: saline with Tween-80) was 127 % of control.
Turning to `O=C1OI(O)c2ccccc21`, under setting [1], the survivor count is given as 0 of 6.
As to `BrCCC[P+](c1ccccc1)(c1ccccc1)c1ccccc1`, the T/C (dose: 18.75 mg/kg/injection, schedule: Q01DX009 (ip), vehicle: saline with Tween-80) was 129 % of control.
Take `O=C(CNC(=O)Nc1ccc(Cl)c(Cl)c1)N/N=C/c1c(O)ccc2ccccc12`: the survivor count is given as 6 of 6 under setting [5], 6 of 6 under setting [6] and 6 of 6 under setting [7].
Take `COC1=C(N2CC2)C(=O)C(OC)=C(N2CC2)C1=O`: the T/C is, setting by setting: (dose: 2.6 mg/kg/injection, schedule: Q04DX003 (ip), vehicle: saline with Tween-80) 130 % of control; (dose: 4.0 mg/kg/injection, schedule: Q04DX003 (ip), vehicle: saline with Tween-80) 135 % of control. For the same molecule, the survivor count by setting is: (dose: 6.0 mg/kg/injection, schedule: Q04DX003 (ip), vehicle: saline with Tween-80) 3 of 6; (dose: 8.0 mg/kg/injection, schedule: Q04DX003 (ip), vehicle: saline with Tween-80) 6 of 6; (dose: 16.0 mg/kg/injection, schedule: Q04DX003 (ip), vehicle: saline with Tween-80) 2 of 6.
Take `NC(CSC(c1ccccc1)(c1ccccc1)c1ccc(CBr)cc1)C(=O)O` (stereo not drawn): the T/C is, setting by setting: (dose: 12.5 mg/kg/injection, schedule: Q01DX009 (ip), vehicle: other) 128 % of control; (dose: 25.0 mg/kg/injection, schedule: Q01DX009 (ip), vehicle: other) 132 and 132 % of control [5 of 6 alive]; (dose: 50.0 mg/kg/injection, schedule: Q01DX009 (ip), vehicle: other) 137 % of control (2×).
Regarding `CNNS(=O)(=O)CC(O)C(Cl)(Cl)Cl` (stereo not drawn), the survivor count (dose: 200.0 mg/kg/injection, schedule: Q01DX009 (ip), vehicle: saline) is 0 of 6.
As for `OC(c1ccccc1)C1CC=CCC1` (stereo not drawn), the T/C (dose: 12.5 mg/kg/injection, schedule: Q04DX003 (ip), vehicle: saline with Tween-80) was 139 % of control and the T/C (dose: 100.0 mg/kg/injection, schedule: Q04DX003 (ip), vehicle: saline with Tween-80) is 149 % of control.
Regarding `CCC(=N\N=C(N)N)/C(CC)=N/N=C(N)N`, the survivor count under setting [3] is on record as 0 of 6.
For `Cc1c2c(n(C)c1C)C(=O)C=CC2=O`, the survivor count (dose: 200.0 mg/kg/injection, schedule: Q01DX001 (ip), vehicle: Klucel (hydroxypropylcellulose) (HPC)) is on record as 0 of 6.
In the case of `CCO/C=C1/N=C(c2cccc(Cl)c2)OC1=O`, the survivor count is, setting by setting: (dose: 100.0 mg/kg/injection, schedule: Q04DX002 (ip), vehicle: saline + Tween-80 + alcohol) 6 of 6; (dose: 200.0 mg/kg/injection, schedule: Q04DX002 (ip), vehicle: saline + Tween-80 + alcohol) 6 of 6.
Turning to `CCc1ccc(C2=C(Cl)C(=O)C(c3ccccc3)=C(Cl)C2=O)cc1`, the survivor count was 2 of 5 (dose: 100.0 mg/kg/injection, schedule: Q01DX005 (ip), vehicle: Klucel (hydroxypropylcellulose) (HPC)) and 1 of 5 (dose: 200.0 mg/kg/injection, schedule: Q01DX005 (ip), vehicle: Klucel (hydroxypropylcellulose) (HPC)).
As to `Cc1cccc(C)c1NC1=C(Cl)C(=O)c2ccccc2C1=O`, the survivor count runs as follows: under setting [6], 2 of 6; under setting [7], 0 of 6; under setting [3], 0 of 6.
Turning to `C=C1C(=O)O[C@@H]2[C@H](O)[C@@H](C)[C@@H]3C=CC(=O)[C@@]3(C)[C@H](OC(=O)C=C(C)C)[C@H]12`, the T/C (dose: 1.56 mg/kg/injection, schedule: Q01DX009 (ip), vehicle: saline) was 140 % of control; the T/C (dose: 3.12 mg/kg/injection, schedule: Q01DX009 (ip), vehicle: saline with Tween-80) was 131 % of control; the T/C (dose: 6.25 mg/kg/injection, schedule: Q01DX009 (ip), vehicle: saline) is 143 % of control; the T/C (dose: 25.0 mg/kg/injection, schedule: Q01DX009 (ip), vehicle: saline) was 129 % of control. In addition, the survivor count was 1 of 6 and 5 of 6 under setting [2]; 0 of 6 (dose: 50.0 mg/kg/injection, schedule: Q01DX009 (ip), vehicle: saline with Tween-80).
As for `COc1ccc2sc3cc(Cl)ccc3c(=O)c2c1`, the survivor count is reported as 6 of 6 (dose: 7.5 mg/kg/injection, schedule: Q01DX005 (ip), vehicle: saline with Tween-80); 6 of 6 under setting [5]; 6 of 6 under setting [6]; 6 of 6 under setting [7]; 6 of 6 under setting [3].
In the case of `O=C1OCC/C1=C1/NC2CCCCC2NC1=O` (stereo not drawn), the survivor count (dose: 200.0 mg/kg/injection, schedule: Q01DX009 (ip), vehicle: saline with Tween-80) is 1 of 6.
For the molecule `Nc1ccc2nc3cc4c5ccccc5c(=O)c5cccc(c54)n3c(=O)c2c1`, the survivor count is given as 0 of 6 (dose: 100.0 mg/kg/injection, schedule: Q01DX005 (ip), vehicle: Klucel + Tween-80) and 0 of 6 (dose: 200.0 mg/kg/injection, schedule: Q01DX005 (ip), vehicle: Klucel + Tween-80).

The record behind these values is PubChem BioAssay AID330 (DTP/NCI, 2004).
